Hit rate of the full screen: of about 340,000 compounds, about 170 (0.05%) were called active. This list was built around the results that the source calls inconclusive (neither active nor inactive); the mix of calls is not that of the screen. Calls come from the whole dose curve; as a rule, active = well fitted inhibition curve with a large enough effect in the signal ratio, with a control signal flat (not every such curve was filed as active); inconclusive = small, poorly fitted or top-dose-only effect, or effect the other way, or a change in a side signal; inactive = flat fitted curve, though single readings scatter; the % refers to the signal ratio. A potency beside an inconclusive call is a rough fit, not a confirmed value.
Assay: qHTS Assay to Find Inhibitors of Chronic Active B-Cell Receptor Signaling;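 for activity change, negative = inhibition: plate controls were basal doxycycline-induced cells for no effect and cells given 10 µM MG132 for full effect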
Conditions: ABC-DLBCL IkBa-CBG/CBR reporter, luminescence ratio (green luciferase fused to IkBa over red control in TMD8 lymphoma cells), 4 h; activity change, negative = inhibition: at 46.1 µM (top of the series) unless noted
In short: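 Doxycycline induced both beetle luciferases in TMD8 lymphoma cells; IKK-driven degradation limits the IkappaBalpha-fused green signal, while red luminescence normalises for cell number and nonspecific effects. Compounds tested up to 46 uM, 4 hrs.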
Potency is the fitted concentration of half-maximal effect.

Compound | activity change, negative = inhibition | Potency
NC(N)=NS(=O)(=O)c1ccc(NC(=S)NC(=O)Cc2ccc(Cl)cc2)cc1 | inactive: -3.03% | –
Cc1ccc(Nc2nc(N)c([N+](=O)[O-])c(NCc3ccccc3)n2)cc1 | inconclusive: 1.08% | –
COc1cccc(/C(C)=N/Nc2ncc(Cl)cc2Cl)c1 | – | inconclusive: 29.1 µM [falling, single point]
COc1ccc(C(=O)Nc2ccccc2C(=O)N/N=C/c2ccncc2)cc1OC | – | inconclusive: 2.51 µM [falling, partial curve, poor fit]
COc1ccc2nc3cccc(OC)c3nc2c1 | inconclusive: 21.2% | –
C/C(=N/NC(=O)CSc1nc2ccccc2s1)c1ccncc1 | inconclusive: -29.4% | –
COc1cc(NS(=O)(=O)c2ccc(OC)c(C)c2C)c(OC)cc1Cl | inconclusive: -2.98% | –
COc1ccc(OCc2nnc3n2N=C(c2ccc(C)cc2)CS3)cc1 | – | inconclusive: 13 µM [falling, partial curve, poor fit]
O=C(C(=O)N1CCN(Cc2ccc3c(c2)OCO3)CC1)c1c[nH]c2ccccc12 | – | inconclusive: 11.2 µM [falling, partial curve, poor fit]
COc1ccc(NC(=O)CN2CCc3ccccc3C2)cc1OC | inconclusive: 0.493% | –
O=C(NCCOc1ccc(Cl)cc1)c1ccc2c(c1)OCCO2 | inconclusive: -14.5% | –
Cn1ncc2c(N3CCC(Cc4ccccc4)CC3)ncnc21 | inconclusive: -2.26% | –
COc1cccc(C2CC(c3ccccc3Cl)n3ncnc3N2)c1 (centres undefined) | inconclusive: 2.59% | –
CC(=O)N1CCCc2cc(S(=O)(=O)N3CCCC(C(=O)Nc4cc(C)ccc4C)C3)ccc21 (centres undefined) | inactive: 1.3% | –
O=c1ccc(/C=C/c2ccccc2)nn1Cc1ccccc1Cl | inconclusive: 2.22% | –
CCOC(=O)c1nn(-c2ccc(C)c(C)c2)cc1O | – | inconclusive: 0.92 µM [rising, full curve, poor fit]
COCCNC(=O)C(c1ccc(C)cc1)N(CCOC)C(=O)CCC(=O)Nc1ccccn1 (centres undefined) | inconclusive: 17.5% | –
COc1ccc(CNC(=O)CCN2C(=O)c3ccccc3C2=O)cc1 | inconclusive: -6.81% | –
Cn1c(=N)n(CC(O)c2cccc3ccccc23)c2ccccc21 (centres undefined) | – | inconclusive: 11.2 µM [falling, partial curve, poor fit]
N#Cc1nc(-c2ccccc2F)oc1N1CCCCC1 | inconclusive: -0.183% | –
Cc1cc(C)c2nc(N(Cc3cccnc3)C(=O)c3cccs3)sc2c1 | inactive: -1.82% | –
COc1ccc(C(=O)Nc2ccc(Cl)cc2C(=O)NCCN2CCOCC2)cc1 | – | inconclusive: 35.5 µM [falling, single point]
COc1ccccc1C(C[N+](=O)[O-])c1c[nH]c2ccccc12 (centres undefined) | inconclusive: 1.13% | –
CC(=O)NC(c1ccccc1)c1cc(Cl)c2cccnc2c1O (centres undefined) | inactive: -9.83% | –
COC(=O)c1ccccc1S(=O)(=O)N1CCC(C(=O)NCc2ccco2)CC1 | inactive: 1.91% | –
COc1ccccc1CO/N=C/NC(=O)c1c(OC)ccnc1Oc1ccc(F)cc1 | inconclusive: -1.04% | –
O=C(NCCN1CCCCC1)c1cc2ccccc2[nH]1 | inactive: -0.148% | –

Of the compounds above, these have fluorine:
Compound | activity change, negative = inhibition | Potency
N#Cc1nc(-c2ccccc2F)oc1N1CCCCC1 | inconclusive: -0.183% | –
COc1ccccc1CO/N=C/NC(=O)c1c(OC)ccnc1Oc1ccc(F)cc1 | inconclusive: -1.04% | –

Next entries

Compound | activity change, negative = inhibition | Potency
N#C/C(=N\Nc1cccc2ccccc12)c1nnc2n1CCCCC2 | – | inconclusive: 4.61 µM [rising, partial curve, poor fit]
Cc1nn(Cc2ccc(Cl)cc2)c(C)c1NC(=O)CSc1n[nH]c(C)c1[N+](=O)[O-] | inactive: -2.25% | –
O=[N+]([O-])c1cccc(Cl)c1NCCNS(=O)(=O)c1ccc(Cl)cc1 | inactive: -13.5% | –
Cc1cc(C(=O)Cn2nnc(-c3ccc(Cl)cc3)n2)c(C)n1-c1ccccc1 | inactive: 0.364% | –
COc1ccc(Br)cc1CN(C)C(=O)c1ccc2c(c1)NC(=O)C(C)S2 (centres undefined) | inconclusive: 0.605% | –
Cc1ccc(C(=O)Nc2ccccc2C(=O)N2CCOCC2)cc1[N+](=O)[O-] | – | inconclusive: 20.6 µM [falling, single point]
CCOCC(=O)Nc1cc(Cl)c(OC)cc1OC | inconclusive: 10.3% | –
COc1ccc(CN(C)C(=O)c2ccc3ccccc3n2)cc1F | – | inconclusive: 28.2 µM [falling, single point]
O=C(COc1ccccc1)Nc1nnc(-c2ccc(F)cc2)o1 | – | inconclusive: 35.5 µM [falling, single point]
COc1ccc(NC(=O)CCC(=O)Nc2nnc(C3CCCCC3)s2)cc1 | inconclusive: 6.61% | –
Cc1cccc(C)c1NC(=O)C(NC=O)c1ccc(N(C)C)cc1 (centres undefined) | inactive: 0.0594% | –
CC(C)Cc1cc(C(=O)NCc2ccco2)no1 | – | inconclusive: 35.5 µM [falling, single point]
CCN1CCN(c2oc(-c3ccccc3)nc2S(=O)(=O)c2ccc(C)cc2)CC1 | – | inconclusive: 9.2 µM [falling, partial curve, poor fit]
O=S(=O)(NCC(c1cccs1)S(=O)(=O)c1ccccc1)c1ccc(F)c(C(F)(F)F)c1 (centres undefined) | inactive: -17% | –
COc1ccc(-c2[nH]c(-c3cccc(OC)c3)nc2SCC(=O)NC2CCCC2)cc1 | inconclusive: -6.7% | –
Cc1ccc(C2=NC3(CCCC3)N=C2SCC(=O)Nc2ccc3c(c2)OCCO3)cc1 | – | inconclusive: 32.6 µM [falling, partial curve, poor fit]
COc1cc(C)nc(N2CCCC(C(=O)Nc3cccc(Cl)c3Cl)C2)n1 (centres undefined) | inconclusive: 4.74% | –
CCC(=O)N1c2ccccc2[C@@H](N(C(C)=O)c2ccccc2)C[C@H]1C | inconclusive: 3.83% | –
O=C(C1CCCN1C(=O)c1cccs1)N1CCN(S(=O)(=O)c2ccc(F)cc2)CC1 (centres undefined) | inactive: -1.02% | –
COC(=O)CCC(C)N1CCC(Oc2ccc(C(=O)N3CCCC3)cc2)CC1 (centres undefined) | inactive: 0.7% | –
COC(=O)c1cccc(NC(=O)/C=C/c2cccc([N+](=O)[O-])c2)c1 | inconclusive: -1.98% | –
O=C1/C(=C/c2ccc(F)cc2)SC(=S)N1CCCC(=O)N1CCCCC1CCO (centres undefined) | – | inconclusive: 25.1 µM [falling, single point]
Nc1cc(=O)[nH]c(SCC(=O)c2ccc(F)cc2)n1 | inconclusive: 8.38% | –
C=CCn1c(C)cc(C(=O)COC(=O)CCc2cc(OC)c(OC)c(OC)c2)c1C | inconclusive: -2.11% | –
C[C@H](NC(=O)c1ccc(Br)cc1)C(=O)NCc1ccc(S(N)(=O)=O)cc1 | inconclusive: 3.68% | –
CC(=O)c1c(C)[nH]c(C(=O)Nc2nccs2)c1C | inconclusive: 15.7% | –
C#CCOC(=O)c1cc(Cl)c(=O)n(Cc2ccc(Cl)cc2Cl)c1 | inactive: 1.73% | –

Compound | activity change, negative = inhibition | Potency
CCN(CC)C(=O)C1CCN(S(=O)(=O)c2ccc3oc4ccccc4c3c2)CC1 | inactive: 4.11% | –
CC(C)Oc1cccc(C(=O)C2CCCN(S(=O)(=O)C(C)C)C2)c1 (centres undefined) | – | inconclusive: 20 µM [falling, partial curve, poor fit]
CC/C(Cc1ccccc1)=N\NC(=O)c1cc(C)oc1C | – | inconclusive: 23.1 µM [falling, partial curve]
CC(C)(C)NC(=O)Cn1nnc(-c2ccccc2Cl)n1 | – | inconclusive: 14.1 µM [falling, partial curve]
CC1CCCN(c2c([N+](=O)[O-])cc(C(=O)O)cc2[N+](=O)[O-])C1 (centres undefined) | – | inconclusive: 2.51 µM [rising, full curve, poor fit]
Cc1cccc(C(=O)NC(=S)NNC(=O)c2ccccc2Cl)c1 | – | inconclusive: 23.1 µM [falling, partial curve, poor fit]
CC(=O)c1sc2nc(CSc3nnnn3-c3ccccc3)[nH]c(=O)c2c1C | inconclusive: 0.0334% | –
NC(=O)c1c(NC(NC(=O)c2ccco2)C(=O)c2ccc(Cl)cc2)sc2c1CCCC2 (centres undefined) | inactive: -18.8% | –
Cc1ccc(S(=O)(=O)N2CCOCC2)cc1C(=O)Nc1nc(-c2ccccn2)cs1 | inactive: -0.848% | –
O=C(C#Cc1ccccc1)c1ccc([N+](=O)[O-])cc1 | inconclusive: 16.7% | –
CCS(=O)(=O)c1ccc2oc(Nc3ccc(C(C)(C)C)cc3)nc2c1 | inactive: -4.12% | –
COc1ccc(OCC(=O)NCc2ccc3c(c2)CCN3C(=O)c2ccc(F)cc2)cc1 | inactive: -16% | –
O=C(CN1CCN(c2ccccc2O)CC1)NC(c1ccccc1)c1ccccc1 | – | inconclusive: 18.4 µM [falling, partial curve]
CCC1CCCCN1CCCNC(=O)c1cc2c(=O)oc3ccc(C)cc3c2s1 (centres undefined) | inactive: -3.01% | –
COc1ccc(CCN2C(=O)NC(NS(=O)(=O)c3ccc(NC(C)=O)cc3)(C(F)(F)F)C2=O)cc1OC (centres undefined) | inactive: 0.927% | –
CCN=C(NS(=O)(=O)c1ccc(Br)cc1)c1ccc(Cl)cc1 | inconclusive: -17.3% | –
Cc1c(Cl)cccc1NCC(=O)Nc1ccc(Cl)cc1F | – | inconclusive: 14.6 µM [falling, partial curve]
Cc1ccc(S(=O)(=O)N(C)CC(=O)NCC(c2ccco2)N(C)C)cc1 (centres undefined) | inconclusive: 1.67% | –
CCCCN(C(=O)Cc1ccc(S(=O)(=O)N2CCOCC2)s1)c1c(N)n(CCCC)c(=O)[nH]c1=O | inactive: -1.22% | –
O=C(NNS(=O)(=O)c1ccc(Cl)cc1)c1cnn(-c2ccccc2)c1-n1cccc1 | inconclusive: 13.2% | –
CCc1ccc(N2C(=O)c3sc4nnc(-c5ccccc5)c(=O)n4c3C2=O)cc1 | inconclusive: -10.3% | –
Clc1ccc(-c2ccc(/C=N/Nc3nncc(-c4ccccc4)n3)o2)cc1 | inactive: -2.24% | –
Oc1ccc(N=Nc2cccc(C(F)(F)F)c2)cc1C=Nc1ccc(N2CCOCC2)cc1 | inconclusive: 8.57% | –
COc1ccccc1-c1csc(NC(=O)c2ccc(N3C(=O)CCC3=O)cc2)n1 | – | inconclusive: 15.8 µM [falling, single point]
Cc1cc(C)c(C)c(C(=O)COC(=O)CNC(=O)CNC(=O)c2ccco2)c1C | inconclusive: 8.59% | –

Rewritten in markdown: 2 of the compounds above.

| Compound | activity change, negative = inhibition | Potency |
| --- | --- | --- |
| CCC1CCCCN1CCCNC(=O)c1cc2c(=O)oc3ccc(C)cc3c2s1 (centres undefined) | inactive: -3.01% | – |
| COc1ccc(CCN2C(=O)NC(NS(=O)(=O)c3ccc(NC(C)=O)cc3)(C(F)(F)F)C2=O)cc1OC (centres undefined) | inactive: 0.927% | – |
